From paper PMC4728341

Chains of the proteins cited; added tags and fusions are not shown. Chains listed by the source or under a name are the forms on record and can include a tag or linker.
UniProt Q9W7C0, entry or part of it: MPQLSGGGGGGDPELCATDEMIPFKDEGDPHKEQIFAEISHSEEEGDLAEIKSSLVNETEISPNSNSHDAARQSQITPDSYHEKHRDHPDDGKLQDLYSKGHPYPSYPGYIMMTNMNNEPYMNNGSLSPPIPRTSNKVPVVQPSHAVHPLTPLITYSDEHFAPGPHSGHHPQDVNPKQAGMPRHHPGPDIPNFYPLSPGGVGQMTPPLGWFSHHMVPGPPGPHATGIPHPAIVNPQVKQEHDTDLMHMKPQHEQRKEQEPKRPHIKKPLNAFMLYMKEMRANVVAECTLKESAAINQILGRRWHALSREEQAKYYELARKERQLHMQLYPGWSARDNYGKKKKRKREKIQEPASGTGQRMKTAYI
Tcf7 (zebrafish), one chain, as listed by the source: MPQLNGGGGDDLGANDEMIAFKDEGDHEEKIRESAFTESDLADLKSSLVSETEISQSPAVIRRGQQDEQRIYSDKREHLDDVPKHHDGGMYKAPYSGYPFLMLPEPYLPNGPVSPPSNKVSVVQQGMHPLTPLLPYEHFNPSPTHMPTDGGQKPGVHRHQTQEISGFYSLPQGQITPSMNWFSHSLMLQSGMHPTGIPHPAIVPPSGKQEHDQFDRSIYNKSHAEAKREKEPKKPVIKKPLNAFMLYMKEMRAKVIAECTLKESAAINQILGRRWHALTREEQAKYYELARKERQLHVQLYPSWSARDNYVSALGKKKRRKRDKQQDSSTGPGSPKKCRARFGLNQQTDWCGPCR

Key:
Lef1-GST (zebrafish) = Lef1-GST (zebrafish) (UniProt Q9W7C0); experiment: EMSA; conditions: 100 ng protein, EMSA per Hellman and Fried 2007, 4% (0.6-kb) or 6% (oligos) non-denaturing acrylamide gel, recombinant protein, residues 1-365, protein details: GST (pGEX4T-1), label: 32P
Tcf7 (zebrafish) = experiment: EMSA; conditions: EMSA per Hellman and Fried 2007; 4% (0.6-kb) or 6% (oligos) non-denaturing acrylamide gel; pH and temperature not stated; recombinant protein; label: 32P
[1] = predominantly binds D2, pH and temperature not …

“TATTTATCCATAGTTTAGAT (double strand) [D2m]”: no binding (Lef1-GST (zebrafish); pH and temperature not stated).

“TATTTATCCTTTGTTTAGAT (double strand) [D2]”: binds (Lef1-GST (zebrafish); pH and temperature not stated); binds (Tcf7 (zebrafish)).

“GGGACTCTGTTTACAGGGGG (double strand) [D1]”: binds more weakly (Lef1-GST (zebrafish); [1]).

“TACACCCACAGAGACATTTG (double strand) [D3]”: binds more weakly (Lef1-GST (zebrafish); [1]).

Construct, isoform or probe ends are uncertain for at least one entry. For some assays here: Negatives hold for the conditions tested. For some assays here: The comparison behind a weaker result is the experiment's own reference, which may not be listed here. For some assays here: At least one verdict rests on a figure or table, not on a statement of the authors.
